# Measured values from PubChem BioAssay (EPA / NIEHS).
# Amino acid sequences for entries named in this document (tags omitted). A change or cut given only in a name is not applied to a line headed by its entry.
# UniProt P49884, whole entry, looked up: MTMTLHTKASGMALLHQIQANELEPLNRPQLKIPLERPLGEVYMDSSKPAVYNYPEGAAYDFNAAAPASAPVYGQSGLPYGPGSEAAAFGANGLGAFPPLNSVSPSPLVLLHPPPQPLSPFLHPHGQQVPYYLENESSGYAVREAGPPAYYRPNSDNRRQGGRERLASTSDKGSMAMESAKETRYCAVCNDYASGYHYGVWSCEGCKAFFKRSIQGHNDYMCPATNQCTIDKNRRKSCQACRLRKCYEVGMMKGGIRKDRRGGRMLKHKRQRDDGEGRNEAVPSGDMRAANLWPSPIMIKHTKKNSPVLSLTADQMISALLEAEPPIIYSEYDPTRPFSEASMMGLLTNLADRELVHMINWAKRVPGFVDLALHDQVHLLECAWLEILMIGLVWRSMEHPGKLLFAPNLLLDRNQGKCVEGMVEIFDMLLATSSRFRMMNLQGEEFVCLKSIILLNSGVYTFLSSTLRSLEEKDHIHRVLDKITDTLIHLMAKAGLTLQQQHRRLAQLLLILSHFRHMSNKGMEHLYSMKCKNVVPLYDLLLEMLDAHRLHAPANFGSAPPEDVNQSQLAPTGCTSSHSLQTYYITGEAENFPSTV
# UniProt P22199: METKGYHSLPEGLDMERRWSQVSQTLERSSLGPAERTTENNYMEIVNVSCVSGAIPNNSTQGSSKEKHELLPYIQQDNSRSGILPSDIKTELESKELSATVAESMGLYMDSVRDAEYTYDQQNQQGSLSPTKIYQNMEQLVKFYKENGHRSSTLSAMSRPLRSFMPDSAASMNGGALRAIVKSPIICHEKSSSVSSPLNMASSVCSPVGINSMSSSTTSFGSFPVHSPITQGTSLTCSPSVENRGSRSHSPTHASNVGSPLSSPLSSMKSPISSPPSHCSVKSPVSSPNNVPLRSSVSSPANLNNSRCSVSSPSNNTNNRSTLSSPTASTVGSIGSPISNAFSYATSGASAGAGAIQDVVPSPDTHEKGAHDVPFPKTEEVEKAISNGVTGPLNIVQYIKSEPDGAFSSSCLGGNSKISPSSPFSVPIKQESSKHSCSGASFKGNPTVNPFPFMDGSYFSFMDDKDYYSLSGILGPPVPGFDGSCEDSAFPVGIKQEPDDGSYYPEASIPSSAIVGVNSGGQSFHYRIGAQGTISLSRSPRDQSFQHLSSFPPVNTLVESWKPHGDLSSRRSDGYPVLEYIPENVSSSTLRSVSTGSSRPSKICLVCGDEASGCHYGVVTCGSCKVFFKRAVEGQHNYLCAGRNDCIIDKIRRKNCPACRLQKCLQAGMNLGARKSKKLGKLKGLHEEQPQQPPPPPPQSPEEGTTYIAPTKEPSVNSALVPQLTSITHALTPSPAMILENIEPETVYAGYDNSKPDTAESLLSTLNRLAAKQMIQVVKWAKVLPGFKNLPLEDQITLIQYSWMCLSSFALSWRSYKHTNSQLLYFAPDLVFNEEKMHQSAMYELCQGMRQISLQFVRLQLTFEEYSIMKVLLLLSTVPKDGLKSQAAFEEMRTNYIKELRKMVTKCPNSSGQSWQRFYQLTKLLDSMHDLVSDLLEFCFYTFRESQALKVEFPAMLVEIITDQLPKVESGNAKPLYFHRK
# UniProt P07727: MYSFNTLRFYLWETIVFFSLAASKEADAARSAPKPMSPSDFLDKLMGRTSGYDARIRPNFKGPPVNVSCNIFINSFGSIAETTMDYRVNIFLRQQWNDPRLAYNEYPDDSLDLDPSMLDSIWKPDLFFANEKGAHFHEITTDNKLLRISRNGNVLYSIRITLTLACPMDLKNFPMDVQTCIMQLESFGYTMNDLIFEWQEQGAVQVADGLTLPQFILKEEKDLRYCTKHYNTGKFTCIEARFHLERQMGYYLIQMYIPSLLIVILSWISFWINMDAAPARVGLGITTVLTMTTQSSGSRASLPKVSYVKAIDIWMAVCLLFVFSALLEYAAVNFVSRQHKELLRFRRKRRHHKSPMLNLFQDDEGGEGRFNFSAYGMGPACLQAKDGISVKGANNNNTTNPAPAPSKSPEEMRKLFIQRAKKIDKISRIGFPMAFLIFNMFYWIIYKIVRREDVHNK
# UniProt P03372, whole entry, looked up: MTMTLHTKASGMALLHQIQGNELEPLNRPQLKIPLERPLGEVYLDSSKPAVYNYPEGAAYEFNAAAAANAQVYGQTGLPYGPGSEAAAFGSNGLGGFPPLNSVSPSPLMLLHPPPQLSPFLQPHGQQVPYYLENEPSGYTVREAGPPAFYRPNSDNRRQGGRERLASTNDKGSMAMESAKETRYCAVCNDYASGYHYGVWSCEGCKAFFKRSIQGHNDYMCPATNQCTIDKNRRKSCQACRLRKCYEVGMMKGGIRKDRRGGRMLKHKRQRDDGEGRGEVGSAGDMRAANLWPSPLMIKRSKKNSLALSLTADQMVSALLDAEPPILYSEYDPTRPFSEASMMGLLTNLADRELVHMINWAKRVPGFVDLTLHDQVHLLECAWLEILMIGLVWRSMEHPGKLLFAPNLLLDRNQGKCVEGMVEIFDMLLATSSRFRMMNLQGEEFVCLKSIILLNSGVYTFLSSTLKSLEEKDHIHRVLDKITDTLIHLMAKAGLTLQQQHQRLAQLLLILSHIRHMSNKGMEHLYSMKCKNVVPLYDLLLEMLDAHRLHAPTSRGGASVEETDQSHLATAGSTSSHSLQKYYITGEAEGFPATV
# UniProt Q07869: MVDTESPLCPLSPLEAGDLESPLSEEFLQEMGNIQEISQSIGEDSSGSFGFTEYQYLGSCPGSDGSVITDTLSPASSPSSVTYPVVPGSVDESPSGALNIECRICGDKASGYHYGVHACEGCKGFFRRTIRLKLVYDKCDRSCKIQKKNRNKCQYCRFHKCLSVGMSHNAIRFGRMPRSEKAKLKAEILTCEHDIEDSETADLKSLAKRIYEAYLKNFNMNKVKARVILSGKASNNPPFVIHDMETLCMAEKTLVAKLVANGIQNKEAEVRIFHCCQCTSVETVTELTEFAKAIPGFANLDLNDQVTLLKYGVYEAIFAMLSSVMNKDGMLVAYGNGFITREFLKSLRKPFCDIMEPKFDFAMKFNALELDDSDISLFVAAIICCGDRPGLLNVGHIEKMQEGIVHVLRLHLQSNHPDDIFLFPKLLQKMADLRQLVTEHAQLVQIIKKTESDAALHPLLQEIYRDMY
# UniProt P08219: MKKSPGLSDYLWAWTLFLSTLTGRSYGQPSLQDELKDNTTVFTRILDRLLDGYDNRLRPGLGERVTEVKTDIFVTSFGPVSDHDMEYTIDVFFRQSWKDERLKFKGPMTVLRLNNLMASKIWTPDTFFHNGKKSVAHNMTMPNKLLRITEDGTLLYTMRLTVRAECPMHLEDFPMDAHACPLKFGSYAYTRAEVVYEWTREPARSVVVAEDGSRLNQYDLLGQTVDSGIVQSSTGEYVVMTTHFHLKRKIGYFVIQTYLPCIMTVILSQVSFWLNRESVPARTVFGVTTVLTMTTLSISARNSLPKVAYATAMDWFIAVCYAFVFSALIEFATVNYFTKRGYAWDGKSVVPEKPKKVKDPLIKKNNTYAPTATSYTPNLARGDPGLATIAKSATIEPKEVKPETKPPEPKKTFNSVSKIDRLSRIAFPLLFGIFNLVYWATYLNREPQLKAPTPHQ
# UniProt Q14994: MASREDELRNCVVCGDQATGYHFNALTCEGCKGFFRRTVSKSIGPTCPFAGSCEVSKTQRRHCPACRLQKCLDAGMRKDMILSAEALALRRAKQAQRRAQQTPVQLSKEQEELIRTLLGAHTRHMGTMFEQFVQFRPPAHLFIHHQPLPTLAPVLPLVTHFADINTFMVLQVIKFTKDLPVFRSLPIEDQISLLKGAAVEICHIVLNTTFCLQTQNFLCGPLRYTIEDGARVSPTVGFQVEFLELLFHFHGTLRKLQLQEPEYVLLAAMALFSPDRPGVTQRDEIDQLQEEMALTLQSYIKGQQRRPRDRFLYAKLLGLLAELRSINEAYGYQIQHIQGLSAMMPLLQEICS
# UniProt Q92731, whole entry, looked up: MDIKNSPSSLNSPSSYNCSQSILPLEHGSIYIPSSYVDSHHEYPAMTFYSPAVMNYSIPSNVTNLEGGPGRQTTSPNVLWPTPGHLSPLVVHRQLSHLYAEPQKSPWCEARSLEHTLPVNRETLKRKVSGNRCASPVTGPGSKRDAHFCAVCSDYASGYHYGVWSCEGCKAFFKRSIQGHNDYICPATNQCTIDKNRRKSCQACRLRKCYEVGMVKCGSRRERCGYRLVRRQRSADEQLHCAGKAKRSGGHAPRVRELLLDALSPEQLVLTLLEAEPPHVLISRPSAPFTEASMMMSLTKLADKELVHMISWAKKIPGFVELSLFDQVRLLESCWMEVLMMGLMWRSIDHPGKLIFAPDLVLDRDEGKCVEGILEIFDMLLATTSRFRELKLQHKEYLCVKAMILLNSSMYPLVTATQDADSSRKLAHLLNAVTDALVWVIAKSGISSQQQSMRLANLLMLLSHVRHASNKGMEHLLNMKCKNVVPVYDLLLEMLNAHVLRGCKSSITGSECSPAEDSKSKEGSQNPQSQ
# UniProt Q96RI1: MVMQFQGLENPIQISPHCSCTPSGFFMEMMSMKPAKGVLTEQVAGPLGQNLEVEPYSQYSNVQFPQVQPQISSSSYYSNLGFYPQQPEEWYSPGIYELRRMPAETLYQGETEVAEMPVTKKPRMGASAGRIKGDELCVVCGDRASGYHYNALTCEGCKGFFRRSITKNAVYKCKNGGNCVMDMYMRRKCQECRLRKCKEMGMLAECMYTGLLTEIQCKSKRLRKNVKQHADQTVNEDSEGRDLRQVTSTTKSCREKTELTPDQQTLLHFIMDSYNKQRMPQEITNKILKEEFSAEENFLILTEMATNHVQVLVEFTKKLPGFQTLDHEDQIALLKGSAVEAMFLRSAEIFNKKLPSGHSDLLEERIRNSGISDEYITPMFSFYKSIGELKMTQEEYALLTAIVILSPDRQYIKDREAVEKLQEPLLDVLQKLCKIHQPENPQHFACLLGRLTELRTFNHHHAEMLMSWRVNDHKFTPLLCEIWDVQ
# “And” between values parts separate entries of the source, which are not always exact repeats. Equal entries are not always repeated. The inconclusive results got no clear call from the source; some entries with a clear call stand among them for comparison. A potency beside an inconclusive call is a rough fit, not a confirmed value. Some structures have more than one record in an assay (separate samples or runs), and their calls can disagree. The source made the active and inactive calls. How the source made its calls: active means hit-call score of the fitted dose curve at least 0.9, where 1 is the maximum; inconclusive means response in the unintended direction; inactive means score below 0.9.
# Key:
# [1] = NVS_IC_rCaBTZCHL: NovaScreen (NVS) Ion Channel Assay for Calcium Channel, Type L, Benzothiazepine Site (CaBTZCHL) (AID 2283337)
# Outline: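 Radioligand binding to the benzothiazepine site of L-type Ca channels in rat cortical membranes (cell-free), 1.5 h after dosing; filter-based scintillation counting. Loss of signal relative to DMSO baseline; primary single-concentration screen at 25 uM, actives then run in concentration series.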
# [2] = tested on: guinea pig Histamine Receptor (H2), gene 100729734; experiment: NVS_GPCR_gH2: NovaScreen (NVS) G Protein-Coupled Receptor Assay for guinea pig Histamine Receptor (H2) (AID 2283342)
# Outline: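 Radioligand displacement on guinea pig striatal membranes, 1 h after dosing, filter-based scintillation counting; loss of signal versus DMSO. Single-point screen at 25 uM in duplicate, then concentration-response up to 50 uM.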
# NCBI gene 100848466 = experiment: NVS_NR_bPR: NovaScreen (NVS) Nuclear Receptor Binding Assay for bovine Progextron Receptor (PR) (AID 2283343);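 on AC50: actives lower bound radioligand signal below DMSO meaning displacement of the label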
# Outline: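 Bovine uterine membrane preparation, cell-free; radioligand competitive displacement measured by scintillation counting 18 hours after dosing. Loss of signal versus DMSO baseline indicates binding; primary HTS single concentration 25 uM in duplicate, actives followed in concentration series.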
# [3] = target: bovine Estrogen Receptor (ER), ESR1 (gene 407238) (UniProt P49884); experiment: NVS_NR_bER: NovaScreen (NVS) Nuclear Receptor Binding Assay for bovine Estrogen Receptor (ER) (AID 2283345);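 further: actives lower the bound radioligand count which means they displace the ER ligand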
# Outline: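 Displacement of a radioligand from estrogen receptor in bovine uterine membrane preparations; scintillation signal taken at 18 hours, DMSO as baseline. Single-concentration duplicates (25 uM) preceded concentration-response follow-up of actives.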
# [4] = target: rat Mineralocorticoid Receptor (MR), Nr3c2 (gene 25672) (UniProt P22199); experiment: NVS_NR_rMR: NovaScreen (NVS) Nuclear Receptor Binding Assay for rat Mineralocorticoid Receptor (MR) (AID 2283355)
# Outline: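 Cell-free radioligand binding to MR in adrenalectomized rat brain supernatant, scintillation counted 24 h after dosing. Loss of signal versus DMSO baseline marks displacement. Primary screen in duplicate at 25 uM; actives retested as concentration series.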
# [5] = target: rat Glycine Receptor, Strychnine-sensitive (GlyRStrySens), Glra1 (gene 25674) (UniProt P07727); experiment: NVS_LGIC_rGlyRStrySens: NovaScreen (NVS) Ligand-Gated Ion Channel Assay for rat Glycine Receptor, Strychnine-sensitive (GlyRStrySens) (AID 2283341)
# Outline: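 Radioligand displacement on rat spinal cord membranes, 1 hr, filter scintillation read-out. Single-concentration duplicate screen at 25 uM; chemicals meeting threshold (e.g., 30% inhibition) rerun in concentration-response up to 50 uM. Loss of binding fitted versus DMSO.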
# [6] = target: rat Glutamate, MK-801 Agonist Site (GluNMDA_MK801), Grin1 (gene 24408) (UniProt P35439); experiment: NVS_LGIC_rGluNMDA_MK801_Agonist: NovaScreen (NVS) Ligand-Gated Ion Channel Assay for rat Glutamate, MK-801 Agonist Site (GluNMDA_MK801) (AID 2283340)
# Outline: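 Radioligand binding at MK-801 site in rat forebrain membranes, 1.5 h incubation, filter-based scintillation counting. Initially 25 uM in duplicate; actives then run in concentration-response up to 50 uM, fitted for gain of signal versus DMSO.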
# [7] = target: Estrogen receptor (Homo sapiens) (UniProt P03372); experiment: NVS_NR_hER: NovaScreen (NVS) Nuclear Receptor Binding Assay for human Estrogen Receptor (ER) (AID 2283348)
# Outline: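 Cell-free radioligand binding with protein extracted from MCF7 cells; scintillation counting 18 hours after dosing. Loss of signal versus DMSO baseline read as displacement; primary single-concentration screen at 25 uM in duplicate, actives retested in concentration series.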
# [8] = target: Estrogen receptor (Homo sapiens) (UniProt P03372); experiment: OT_ER_ERaERa_0480: Odyssey Thera (OT) 8-hour HEK293T Protein-Complementation Assay for Estrogen Receptor-alpha/-alpha Homodimer (AID 2283351);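 further: rise in fluorescence from reassembled reporter fragments on ERα LBD homodimer in nucleus or whole cell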
# Outline: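 HEK293T cells stably expressing the human ERα ligand-binding domain (aa 310-547) as a homodimer PCA were dosed with compound for 8 h. Gain of fluorescence intensity versus DMSO vehicle was read by laser scanning cytometry.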
# [9] = target: human Peroxisome Proliferator-activated Receptor alpha (PPARa), PPARA (gene 5465) (UniProt Q07869); experiment: NVS_NR_hPPARa: NovaScreen (NVS) Nuclear Receptor Binding Assay for human Peroxisome Proliferator-activated Receptor alpha (PPARa) (AID 2283359);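 further: activity means loss of TR-FRET signal versus DMSO baseline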
# Outline: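 Cell-free binding assay with extracted human protein, read by TR-FRET 1 h after chemical dosing. Loss of signal relative to DMSO baseline indicates binding. Primary screen used duplicate single concentration (25 uM); actives followed up in concentration series.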
# [10] = target: bovine Gamma-Aminobutyric Acid Type A Receptor Agonist (GABAR Agonist), GABRA1 (gene 780973) (UniProt P08219); experiment: NVS_LGIC_bGABAR_Agonist: NovaScreen (NVS) Ligand-Gated Ion Channel Assay for bovine Gamma-Aminobutyric Acid Type A Receptor Agonist (GABAR Agonist) (AID 2283338)
# Outline: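 Radioligand binding to bovine cerebellar membranes in agonist format, read by filter-based scintillation counting after 1 h. Primary screen in duplicate at 25 uM, with actives followed in concentration series. Gain of signal versus DMSO.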
# [11] = target: human Constitutive Androstane Receptor (CAR), NR1I3 (gene 9970) (UniProt Q14994); experiment: NVS_NR_hCAR_Antagonist: NovaScreen (NVS) Nuclear Receptor Binding Assay for human Constitutive Androstane Receptor Antagonism (CAR) (AID 2283344)
# Outline: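 Cell-free TR-FRET binding read 1 h after dosing, antagonist mode; loss of signal versus DMSO baseline. Primary screen in duplicate at a single 25 uM; actives retested in concentration series.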
# [12] = target: Estrogen receptor (Homo sapiens) + Estrogen receptor beta (Homo sapiens) (UniProt P03372+Q92731); experiment: OT_ER_ERaERb_0480: Odyssey Thera (OT) 8-hour HEK293T Protein-Complementation Assay for Estrogen Receptor-alpha/-beta Heterodimer (AID 2283352)
# Outline: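 Compound added to HEK293T cells carrying split-reporter-tagged ER-alpha and ER-beta LBDs, incubated 8 hours, then imaged by laser scanning cytometer. Signal rise in nucleus, or nucleus and cytoplasm, over vehicle was fitted in the positive direction.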
# [13] = target: Estrogen receptor beta (Homo sapiens) (UniProt Q92731); experiment: OT_ER_ERbERb_0480: Odyssey Thera (OT) 8-hour HEK293T Protein-Complementation Assay for Estrogen Receptor-beta/-beta Homodimer (AID 2283357);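 further: active means signal gain over DMSO baseline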
# Outline: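 Readout: increase in mean fluorescence intensity (nucleus for agonists; nucleus plus cytoplasm for antagonists) relative to DMSO, from a reporter-fragment complementation of human ER-beta LBD homodimer in HEK293T cells dosed 8 hours.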
# [14] = target: Bile acid receptor (Homo sapiens) (UniProt Q96RI1); experiment: NVS_NR_hFXR_Agonist: NovaScreen (NVS) Nuclear Receptor Binding Assay for human Farnesoid X Receptor Agonism (FXR) (AID 2283347)
# Outline: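 Cell-free TR-FRET binding assay with extracted human FXR protein, agonist format, read 1 h after dosing. Primary screen at 25 uM single concentration in duplicate, actives retested in concentration series; gain of signal versus DMSO.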
compound,measurement,setting,value
CCOC(=O)CCC(=O)OCC,AC50,[1],inconclusive: 4.96 µM
same,AC50,[2],inconclusive: 6.66 µM
same,AC50,NCBI gene 100848466,inconclusive: 4.96 µM
same,AC50,[3],inconclusive: 6.65 µM
same,AC50,[4],active: 25 µM
CCOC(=O)C(C)Oc1ccc(Oc2nc3ccc(Cl)cc3o2)cc1 (stereo not given),AC50,[5],inconclusive: 25 µM
C=CCc1cc(S(=O)(=O)c2ccc(O)c(CC=C)c2)ccc1O,AC50,[6],inconclusive: 25 µM
same,outcome,NCBI gene 100848466,inactive
same,AC50,[3],active: 19.1 µM
same,AC50,[7],active: 12.5 µM
same,outcome,[7],inactive
same,outcome,[8],inactive
same,AC50,[9],active: 25 µM
N#Cc1ccccc1,AC50,[1],inconclusive: 44 µM
CCN(CC)C(=S)SSC(=S)N(CC)CC,AC50,[10],inconclusive: 25 µM
same,AC50,[11],inconclusive: 25 µM
same,AC50,[9],inconclusive: 25 µM
C=CC(=O)OCCCCCCCC(C)C,AC50,[1],inconclusive: 0.00398 µM
Cc1[nH]cnc1C[C@H]1CCc2c(C)c3ccccc3n2C1=O,outcome,[1],inactive
same,AC50,[10],active: 9.14 µM
CC(C)c1ccc(C(=O)N=C(N)N)cc1S(C)(=O)=O,outcome,[6],inactive
same,AC50,[11],inconclusive: 18.6 µM
same,outcome,[3],inactive
same,AC50,[7],inconclusive: 4.7 µM
same,AC50,[8],inconclusive: 37.2 µM
Clc1cc(Cl)c(Cl)cc1Cl,AC50,[10],inconclusive: 0.0157 µM
same,AC50,[12],inconclusive: 0.637 µM
CCOc1ccc(NC(N)=O)cc1,AC50,[1],inconclusive: 0.0864 µM
O=C1OC[C@H](Cc2cccc(O)c2)[C@H]1Cc1cccc(O)c1,AC50,[1],inconclusive: 0.158 µM
CCCCCCCCCCCCc1ccccc1S(=O)(=O)O,outcome,[6],inactive
same,AC50,[11],active: 10.9 µM
same,AC50,[3],active: 39.1 µM
same,AC50,[7],active: 40.6 µM
same,AC50,[12],inconclusive: 0.853 µM
O=C(O)c1cccnc1,AC50,[5],inconclusive: 6.86 µM
NCCOCCOCCN,AC50,[5],inconclusive: 1 µM
Cc1nc(-c2ccc3c(c2)CCN(CCC2CCC(NC(=O)/C=C/c4ccc(F)cc4)CC2)CC3)no1 (stereo not given),outcome,[1],inactive
same,outcome,[11],inactive
same,outcome,[3],inactive
CN(c1nccc(=O)[nH]1)C1CCN(c2nc3ccccc3n2Cc2ccc(F)cc2)CC1,outcome,[1],inactive
CNCc1ccc(NC(=O)c2c[nH]c3c2C(=O)CCC3)cc1,AC50,[10],inconclusive: 0.0805 µM
CC(C)C=O,AC50,[1],inconclusive: 4.96 µM
CC(C)=CCC/C(C)=C\CO,AC50,[10],inconclusive: 0.0734 µM
same,outcome,[11],inactive
CCNc1nc(N)nc(Cl)n1,AC50,[10],inconclusive: 25 µM
same,AC50,[11],inconclusive: 0.0707 µM
same,AC50,[13],inconclusive: 50 µM
Cn1cnc2c1c(=O)[nH]c(=O)n2C,AC50,[1],inconclusive: 10.5 µM
CC(C)(C)c1ccccc1,outcome,[10],inactive
CC(CCl)OP(=O)(OC(C)CCl)OC(C)CCl (stereo not given),AC50,[1],inconclusive: 0.0618 µM
same,outcome,[12],inactive
O=C1NC(=O)C(c2ccccc2)(c2ccccc2)N1,outcome,[11],inactive
same,AC50,[9],inconclusive: 25 µM
Oc1ccc2c(c1)-c1ccccc1C2,AC50,NCBI gene 100848466,active: 25 µM
same,AC50,[13],active: 12.7 µM
CN(C)Cc1cc(CN(C)C)c(O)c(CN(C)C)c1,AC50,[3],inconclusive: 44.8 µM
c1cc(-c2ccncc2)ccn1,AC50,NCBI gene 100848466,inconclusive: 40.7 µM
same,AC50,[12],inconclusive: 50 µM
O=C(c1ccc(O)cc1)c1ccc(O)cc1O,AC50,[3],active: 2.12 µM
CC1(C)CC(N=C=O)CC(C)(CN=C=O)C1 (stereo not given),AC50,NCBI gene 100848466,inconclusive: 0.0379 µM
same,AC50,[9],inconclusive: 42.6 µM
O=C(Oc1ccccc1)c1cccc(C(=O)Oc2ccccc2)c1,AC50,[11],inconclusive: 26.1 µM
Nc1ccc(Oc2ccc(N)c(N)c2)cc1,outcome,[3],inactive
O=C(OCCOCCOC(=O)c1ccccc1)c1ccccc1,outcome,[11],inactive
CCCCOC(=O)CC(CC(=O)OCCCC)(OC(C)=O)C(=O)OCCCC,AC50,[11],inconclusive: 25 µM
CCCCCCOC(=O)c1ccc(O)cc1,AC50,[3],active: 13 µM
NC(=O)N1C(=O)C(C(=O)c2cc(Cl)cs2)c2cc(F)c(Cl)cc21 (stereo not given),AC50,NCBI gene 100848466,inconclusive: 6.1 µM
same,AC50,[3],active: 25 µM
same,AC50,[12],inconclusive: 50 µM
same,outcome,[9],inactive
Cn1c(=O)cc(Oc2ccc(F)cc2F)c2cnc(NCC(C)(C)O)nc21,AC50,[2],inconclusive: 25 µM
same,AC50,[14],inconclusive: 39.6 µM
same,AC50,[4],inconclusive: 25 µM
Nc1ccn([C@@H]2O[C@H](CO)[C@@H](O)[C@@H]2O)c(=O)n1,AC50,[3],inconclusive: 25 µM
CCCN(CCC)C(=O)SCC,AC50,NCBI gene 100848466,inconclusive: 0.665 µM
same,outcome,NCBI gene 100848466,inactive
same,outcome,[11],inactive
same,AC50,[3],inconclusive: 25 µM
same,AC50,[7],inconclusive: 25 µM and inconclusive: 6.6 µM
same,AC50,[4],inconclusive: 1.6 µM

# 4 successive records already listed, for reference:
compound,measurement,setting,value
O=C(OCCOCCOC(=O)c1ccccc1)c1ccccc1,outcome,[11],inactive
CCCCOC(=O)CC(CC(=O)OCCCC)(OC(C)=O)C(=O)OCCCC,AC50,[11],inconclusive: 25 µM
CCCCCCOC(=O)c1ccc(O)cc1,AC50,[3],active: 13 µM
NC(=O)N1C(=O)C(C(=O)c2cc(Cl)cs2)c2cc(F)c(Cl)cc21 (stereo not given),AC50,NCBI gene 100848466,inconclusive: 6.1 µM
